# Laboratory results from the supplement of paper PMC9135407.
# Values joined by “and” are separate entries in the source; they are usually repeats but may differ in a detail not shown here. Identical values can stand only once. Counter-ions that a name gives are not always drawn. ± gives the standard deviation of the averaged measurements. The list shows a part of the results. Plates or batches differ in their baseline, so values are only roughly comparable.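 Assay uses culture-activated primary human stellate myofibroblasts; lipid droplet recovery indicates inactivation. Measured: proportion of Hoechst-counted cells over a plate-specific Bodipy cutoff, duplicate wells, DMSO and nortriptyline as per-plate negative and positive controls. A hit scores, control-normalized, above the plate's top-tenth-percentile nortriptyline wells or ranks among its three best wells. Final well concentrations not reported.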
# Tested on: primary human hepatic stellate cells (donor 1)
# Assay: percent Bodipy-positive cells; higher = more lipid droplet accumulation
# Details: 48 h
# Experimental: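 Primary lipid accumulation screen in primary human hepatic stellate cell myofibroblasts (donor 1, passage 8) in 384-well plates. 100 nL of library compound was pin-transferred into 30 µL medium in duplicate, and cells were treated for 48 h. The 'Scaled' score combines distance from plate baseline, toxicity and reproducibility penalties, and is normalised to nortriptyline (positive) and DMSO (negative) controls on each plate. A hit is defined as scaled >0.85 or among the top 3 wells per plate.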
# [1] = library stock concentration: 10 mM
# [2] = library stock concentration: 3.33 mM
# [3] = library stock concentration: 1 mM
smiles,measurement,setting,value
CCCCNC(=O)[C@@H]1Cc2ccccc2N1C(=O)[C@@H](N)CC [Butabindide oxalate],percent Bodipy-positive cells,[1],6.05 ± 0.63%
C[C@H](O)[C@H](O)[C@@H](O)[C@@H](O)C=O [L-(+)-Rhamnose Monohydrate],percent Bodipy-positive cells,[2],9.569 ± 0.014%
same,percent Bodipy-positive cells,[1],24.3 ± 15%
Cc1ncc(CO)c(CO)c1O [Pyridoxine hydrochloride],percent Bodipy-positive cells,,31.6 ± 2.5%
Cc1ncc(CO)c(CO)c1O [Pyridoxine],percent Bodipy-positive cells,library stock concentration: 11.8 mM,16.2 ± 0.56%
Cc1ncc(CO)c(CO)c1O [Pyridoxine HCl],percent Bodipy-positive cells,[2],7.63 ± 1.2%
same,percent Bodipy-positive cells,[1],9.52 ± 3.9%
O=C(O)c1ccc(-c2c[nH]c3ncc(-c4ccccc4)cc23)cc1C1CCCC1,percent Bodipy-positive cells,[2],24.5 ± 3.7%
same,percent Bodipy-positive cells,[1],29.3% and 8.5%
CN1CCc2cc(Cl)c(O)cc2[C@@H](c2ccccc2)C1,percent Bodipy-positive cells,library stock concentration: 9.9 mM,20.8 ± 7.6%
Nc1ccc(N2C(=O)c3ccccc3C2=O)c(Cl)c1 [N-(4-Amino-2-chlorophenyl)phthalimide],percent Bodipy-positive cells,[1],52.3 ± 8.9%
CC1(C)[C@H](C(=O)O)N2C(=O)C[C@H]2S1(=O)=O [Sulbactam],percent Bodipy-positive cells,[2],7.25 ± 1.9%
same,percent Bodipy-positive cells,library stock concentration: 8.6 mM,10.1 ± 1.1%
same,percent Bodipy-positive cells,[1],25.8 ± 24%
CC1(C)[C@H](C(=O)O)N2C(=O)C[C@H]2S1(=O)=O [Sulbactam sodium],percent Bodipy-positive cells,[2],8.34 ± 2.5%
same,percent Bodipy-positive cells,[1],18.9 ± 5.4%
COc1cc2c3cc1Oc1cc(ccc1O)C[C@@H]1c4c(cc(OC)c(O)c4Oc4ccc(cc4)C[C@@H]3N(C)CC2)CC[N+]1(C)C [Tubocurarine chloride],percent Bodipy-positive cells,library stock concentration: 3.1 mM,9.41 ± 1.8%
CC\C=C/C=C/C=C/C=C\CCCCCCCC(=O)O [cis-Parinaric Acid],percent Bodipy-positive cells,[3],11.5 ± 0.18%
COc1cc(C(=O)NCCCCCC(=O)O)cc(OC)c1OC [Capobenic acid],percent Bodipy-positive cells,library stock concentration: 6.1 mM,12.7 ± 3%
c1ccc(-c2[nH]ncc2-c2ccnc3ccccc23)nc1,percent Bodipy-positive cells,[3],8.04 ± 1.8%
same,percent Bodipy-positive cells,[1],6.92 ± 3.2%
CC1=C(C(=O)O)N2C(=O)[C@@H](NC(=O)[C@H](N)C3=CCC=CC3)[C@H]2SC1 [Cephradine],percent Bodipy-positive cells,library stock concentration: 5.7 mM,2.07 ± 1.3%
N[C@@H](CCC(=O)N[C@@H](CS)C(=O)NCC(=O)O)C(=O)O [Glutathione],percent Bodipy-positive cells,[1],31.7 ± 20%
CCC1(c2ccccc2)NC(=O)N(C)C1=O (stereo not given) [Mephenytoin],percent Bodipy-positive cells,,6.54 ± 0.93%
same,percent Bodipy-positive cells,library stock concentration: 9.2 mM,11.9 ± 5.5%
C=CC(=O)Nc1cc(Nc2nccc(-c3cn(C)c4ccccc34)n2)c(OC)cc1N(C)CCN(C)C,percent Bodipy-positive cells,[1],98.8 ± 1.7%
C#Cc1cccc(Nc2ncnc3cc4c(cc23)OCCOCCOCCO4)c1 [Icotinib],percent Bodipy-positive cells,[2],14.5 ± 11%
same,percent Bodipy-positive cells,[1],30.8 ± 11%
Cc1ccc(NCCCc2ccccc2)c(N)c1,percent Bodipy-positive cells,[2],27.6 ± 12%
same,percent Bodipy-positive cells,[1],38.1 ± 4.5%
